According to the supplement of paper PMC7858590:
± gives the standard deviation of the averaged measurements. The full ranking holds about 3,800 compounds; the median of “cell shape (eccentricity) Z-score vs DMSO control” is about 1.1, and the lowest 2% start at about -4.7. The list shows a part of the results. Non-standard residues stand in square brackets, D forms with d. Residues, ends and D or L forms follow the SMILES beside them. Iva = CC[C](C)(N)C(=O)O

System: human monocyte-derived macrophages (M0)
Experiment: cell shape (eccentricity) Z-score vs DMSO control; higher = more elongated, M2-like morphology
Settings: 20 µM; 24 h; macrophage state: M0 (M-CSF)

Row | Structure (SMILES) | cell shape (Z-score)
1 | CCC(C)(NC(C)=O)C(=O)NC(Cc1c[nH]c2ccccc12)C(=O)NC(CCC(N)=O)C(=O)O (stereo not drawn) (Ac-[Iva]-Trp-Gln-OH; configuration not given here) | 8.21
2 | Cc1cc(C)cc(OCC2CNC(=O)O2)c1 (stereo not drawn) | 2.35
3 | N#CC(=Cc1ccc(O)c(O)c1)C(=O)NCCCCc1ccccc1 | -2.6
4 | O=C(O)CCc1cc2ccoc2cc1O[C@@H]1O[C@H](CO)[C@@H](O)[C@H](O)[C@H]1O | -0.37
5 | COC(=O)C1=COC(O[C@@H]2O[C@H](CO)[C@@H](O)[C@H](O)[C@H]2O)[C@@H]2[C@@](C)(O)[C@@H](OC(=O)/C=C\c3ccccc3)C[C@]12O (stereo partly drawn) | 2.07
6 | CC1(C)CC[C@]2(C(=O)O[C@@H]3O[C@H](CO)[C@@H](O)[C@H](O)[C@H]3O)CC[C@]3(C)C(=CCC4[C@@]5(C)C[C@@H](O)[C@H](O)[C@@](C)(CO)C5CC[C@]43C)C2C1 (stereo partly drawn) | -0.496
7 | COc1ccc(/C=C/C(=O)O)cc1OC | -3.58
8 | COc1cc(/C(C)=C/C(C)(O)C(C)O)oc(=O)c1C (stereo not drawn) | 1.58
9 | O=C(Nc1ccc([N+](=O)[O-])cc1Cl)c1cc(Cl)ccc1O | -4.1 ± 4.2
10 | Nc1nc2c(ncn2COCCO)c(=O)[nH]1 | 7.44
11 | Oc1ccc(/C=C/c2cc(O)cc(O)c2)cc1 | -2.48
12 | CCC(C)[C@H]1O[C@]2(CC[C@@H]1C)C[C@@H]1C[C@@H](C/C=C(\C)[C@@H](OC3C[C@H](OC)C(O[C@H]4C[C@H](OC)[C@@H](O)[C@H](C)O4)[C@H](C)O3)[C@@H](C)/C=C/C=C3\CO[C@@H]4[C@H](O)C(C)=C[C@@H](C(=O)O1)[C@]34O)O2 (stereo partly drawn) | 2.53
13 | C=C1C(=O)O[C@@H]2[C@H]3C(=C)[C@@H](O[C@@H]4O[C@H](CO)[C@@H](O)[C@H](O)[C@H]4O)C[C@H]3C(=C)C[C@@H](O)[C@@H]12 | 2.36
14 | CC1(C)CC[C@]2(C(=O)O[C@@H]3O[C@H](CO)[C@@H](O)[C@H](O)[C@H]3O)CC[C@]3(C)C(=CCC4[C@@]5(C)C[C@@H](O)[C@H](O)[C@](C)(CO)C5CC[C@]43C)C2[C@@H]1O (stereo partly drawn) | 1.6
15 | COc1ccc2cc3[n+](cc2c1OC)CCc1cc2c(cc1-3)OCO2 | -1.9
16 | O=C(NCCN1CCC(n2c(=O)[nH]c3ccccc32)CC1)c1ccc2ccccc2c1 | 1.71
17 | OC[C@H]1O[C@@H](n2cnc3c(N[C@H]4CCC[C@@H]4O)ncnc32)[C@H](O)[C@@H]1O | 4.33
18 | CC1OC(Oc2cc(O)c3c(=O)c(OC4OCC(O)C(O)C4O)c(-c4ccc(O)cc4)oc3c2)C(O)C(O)C1O (stereo not drawn) | 2.06
19 | CN1C(=O)OC(C)(C)C1=O | -0.35
20 | CC(C)NC[C@H](O)COc1cccc2ccccc12 | 0.14
21 | O=C(N[C@@H](CO)[C@H](O)c1ccc([N+](=O)[O-])cc1)C(Cl)Cl | 1.51
22 | Cc1cc(=O)c2c(O)c3c(cc2o1)OC(C(C)(C)OC1OC(CO)C(O)C(O)C1O)C3 (stereo not drawn) | 0.72

Row | Structure (SMILES) | cell shape (Z-score)
23 | OCCN1CCN(CCCN2c3ccccc3Sc3ccc(C(F)(F)F)cc32)CC1 | 0.215
24 | CCN(CC)CCOc1ccc2c(c1)C(=O)c1cc(OCCN(CC)CC)ccc1-2 | 11.9
25 | COc1ccc(-c2cc(C(F)F)nn2-c2ccc(S(N)(=O)=O)cc2)cc1F | 0.349
26 | C=C1C[C@]23C[C@@]1(O)CC[C@H]2[C@@]12C=C[C@H](O)[C@](C)(C(=O)O1)[C@H]2[C@@H]3C(=O)O | -0.753
27 | O=C(c1ccc2c(c1)OCO2)N1CCCCC1 | -0.873
28 | COc1cc(O)c2c(=O)cc(C)oc2c1CC=C(C)C | 4.2
29 | O=C(Oc1ccc([C@@H]2Oc3cc(O)cc(O)c3C[C@H]2O)cc1O)c1cc(O)c(O)c(O)c1 | 0.214
30 | CCOC(=O)/C=C\n1nnc(-c2cccc(Cl)c2)n1 | 4.62
31 | COCCCCC(=NOCCN)c1ccc(C(F)(F)F)cc1 | -14.7
32 | CNCc1ccccc1 | 2.47
33 | CC(=O)[C@@]1(O)CCC2C3CCC4=CC(=O)CC[C@]4(C)C3CC[C@@]21C (stereo partly drawn) | 2.17
34 | O=C(O)Cc1ccccc1Nc1c(Cl)cccc1Cl | -2.82
35 | Cn1cnnc1Sc1c([N+](=O)[O-])ncn1C | 2.65
36 | Nc1nc(NCCc2ccc(O)cc2)nc2nc(-c3ccco3)nn12 | 2.77
37 | CCCCCCCCC/C=C/CCCCC(=O)C1C(=O)CCC(O)C1=O (stereo not drawn) | 1.37
38 | CCOC(=O)OC(C)OC1=C(C(=O)Nc2ccccn2)N(C)S(=O)(=O)c2ccccc21 (stereo not drawn) | 1.06
39 | COc1cc(OC)cc(OC)c1 | 2.38
40 | CN1C(=O)C(Cc2c[nH]c3ccccc23)NC1=S (stereo not drawn) | 4.67
41 | COc1cc2c(Oc3ccc(NC(=O)C4(C(=O)Nc5ccc(F)cc5)CC4)cc3F)ccnc2cc1OCCCN1CCOCC1 | 4.4
42 | CN(C)CCCSc1ccccc1NC(=O)C=Cc1ccccc1 | 0.44
43 | OC(CCN1CCCCC1)(c1ccccc1)C1CC2C=CC1C2 (stereo not drawn) | 1.11

13 of these compounds in a different format.
Row	Structure (SMILES)	cell shape (Z-score)
17	OC[C@H]1O[C@@H](n2cnc3c(N[C@H]4CCC[C@@H]4O)ncnc32)[C@H](O)[C@@H]1O	4.33
18	CC1OC(Oc2cc(O)c3c(=O)c(OC4OCC(O)C(O)C4O)c(-c4ccc(O)cc4)oc3c2)C(O)C(O)C1O (stereo not drawn)	2.06
19	CN1C(=O)OC(C)(C)C1=O	-0.35
20	CC(C)NC[C@H](O)COc1cccc2ccccc12	0.14
21	O=C(N[C@@H](CO)[C@H](O)c1ccc([N+](=O)[O-])cc1)C(Cl)Cl	1.51
22	Cc1cc(=O)c2c(O)c3c(cc2o1)OC(C(C)(C)OC1OC(CO)C(O)C(O)C1O)C3 (stereo not drawn)	0.72
23	OCCN1CCN(CCCN2c3ccccc3Sc3ccc(C(F)(F)F)cc32)CC1	0.215
24	CCN(CC)CCOc1ccc2c(c1)C(=O)c1cc(OCCN(CC)CC)ccc1-2	11.9
25	COc1ccc(-c2cc(C(F)F)nn2-c2ccc(S(N)(=O)=O)cc2)cc1F	0.349
26	C=C1C[C@]23C[C@@]1(O)CC[C@H]2[C@@]12C=C[C@H](O)[C@](C)(C(=O)O1)[C@H]2[C@@H]3C(=O)O	-0.753
27	O=C(c1ccc2c(c1)OCO2)N1CCCCC1	-0.873
28	COc1cc(O)c2c(=O)cc(C)oc2c1CC=C(C)C	4.2
29	O=C(Oc1ccc([C@@H]2Oc3cc(O)cc(O)c3C[C@H]2O)cc1O)c1cc(O)c(O)c(O)c1	0.214
